For at least one entry, the source does not settle the construct or the ends of the probe. Results from cells or extracts need not show a direct contact. For some assays here: No signal at the amounts used counts as a negative. Where a protein sequence is shown, tags need not be part of it.

We go through 2 sequences from paper PMC11417359.

For series [1], the target named is T1, HSF5 (Mus musculus) (UniProt Q5ND04).
T1 sequence (looked up, limits assumed): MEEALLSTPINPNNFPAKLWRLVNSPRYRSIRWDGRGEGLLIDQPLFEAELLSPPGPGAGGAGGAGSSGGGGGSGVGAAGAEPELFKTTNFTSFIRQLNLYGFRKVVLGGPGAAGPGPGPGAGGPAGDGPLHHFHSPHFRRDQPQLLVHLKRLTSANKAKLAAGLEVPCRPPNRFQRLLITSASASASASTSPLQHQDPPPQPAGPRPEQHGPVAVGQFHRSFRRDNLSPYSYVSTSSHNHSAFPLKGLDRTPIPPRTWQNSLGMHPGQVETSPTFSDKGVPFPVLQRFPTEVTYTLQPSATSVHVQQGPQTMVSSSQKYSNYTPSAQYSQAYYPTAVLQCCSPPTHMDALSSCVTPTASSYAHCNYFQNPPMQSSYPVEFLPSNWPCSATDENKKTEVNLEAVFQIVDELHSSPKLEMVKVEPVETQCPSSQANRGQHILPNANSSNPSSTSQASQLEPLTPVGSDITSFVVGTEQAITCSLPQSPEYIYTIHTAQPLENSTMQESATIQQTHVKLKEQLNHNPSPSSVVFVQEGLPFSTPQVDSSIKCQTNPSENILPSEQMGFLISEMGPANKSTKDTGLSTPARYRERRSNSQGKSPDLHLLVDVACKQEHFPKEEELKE
Kind of series: EMSA. The following applies: nuclear extract, signal undetectable with excess (100-fold) unlabeled target probe; Beyotime EMSA/Gel-Shift Kit GS009; competitor or antibody preincubated 20 min (antibody at room temperature); 5% polyacrylamide gel in TBE; protein in an extract; label: 5'-Cy5 (labeled probe), unlabeled as competitor.

The target of series [2] is T1, HSF5 (Mus musculus). The experiment in a line: competition with a labelled probe. To be noted: 100-fold excess mutant probe did not abolish binding to N1; Beyotime EMSA/Gel-Shift Kit GS009; competitor or antibody preincubated 20 min (antibody at room temperature); 5% polyacrylamide gel in TBE; protein in an extract; label: 5'-Cy5.

Take “CCGGTGTAGAACGCTCAGA (double strand) [Slc25a42 promoter probe (heptamer TAGAACG)]”: in series [1], the binding result is “binds”. “CCGGTGTTACAGTCTCAGA (double strand) [mutant probe]”: the binding result in series [2] is on record as “no binding”.
